Values of other authors in patent US20190054093A1, “TREATMENT OF SARCOPENIA WITH ECDYSTEROIDS” (priority 2014, published 2019).

Conditions: adult and sexually immature animals; cited from earlier work

Compound	increase of γ-globulins in blood serum
CC(C)(O)CC[C@@H](O)[C@](C)(O)[C@H]1CC[C@@]2(O)C3=CC(=O)[C@@H]4C[C@@H](O)[C@@H](O)C[C@]4(C)[C@H]3[C@H](O)C[C@]12C [turkesterone]	statistically significant
turkesterone tetraacetate	statistically significant
